{"sequences": {"note": "The chains behind the UniProt entries cited, without tags or fusion partners. Residues count along the entry.", "UniProt Q62120": "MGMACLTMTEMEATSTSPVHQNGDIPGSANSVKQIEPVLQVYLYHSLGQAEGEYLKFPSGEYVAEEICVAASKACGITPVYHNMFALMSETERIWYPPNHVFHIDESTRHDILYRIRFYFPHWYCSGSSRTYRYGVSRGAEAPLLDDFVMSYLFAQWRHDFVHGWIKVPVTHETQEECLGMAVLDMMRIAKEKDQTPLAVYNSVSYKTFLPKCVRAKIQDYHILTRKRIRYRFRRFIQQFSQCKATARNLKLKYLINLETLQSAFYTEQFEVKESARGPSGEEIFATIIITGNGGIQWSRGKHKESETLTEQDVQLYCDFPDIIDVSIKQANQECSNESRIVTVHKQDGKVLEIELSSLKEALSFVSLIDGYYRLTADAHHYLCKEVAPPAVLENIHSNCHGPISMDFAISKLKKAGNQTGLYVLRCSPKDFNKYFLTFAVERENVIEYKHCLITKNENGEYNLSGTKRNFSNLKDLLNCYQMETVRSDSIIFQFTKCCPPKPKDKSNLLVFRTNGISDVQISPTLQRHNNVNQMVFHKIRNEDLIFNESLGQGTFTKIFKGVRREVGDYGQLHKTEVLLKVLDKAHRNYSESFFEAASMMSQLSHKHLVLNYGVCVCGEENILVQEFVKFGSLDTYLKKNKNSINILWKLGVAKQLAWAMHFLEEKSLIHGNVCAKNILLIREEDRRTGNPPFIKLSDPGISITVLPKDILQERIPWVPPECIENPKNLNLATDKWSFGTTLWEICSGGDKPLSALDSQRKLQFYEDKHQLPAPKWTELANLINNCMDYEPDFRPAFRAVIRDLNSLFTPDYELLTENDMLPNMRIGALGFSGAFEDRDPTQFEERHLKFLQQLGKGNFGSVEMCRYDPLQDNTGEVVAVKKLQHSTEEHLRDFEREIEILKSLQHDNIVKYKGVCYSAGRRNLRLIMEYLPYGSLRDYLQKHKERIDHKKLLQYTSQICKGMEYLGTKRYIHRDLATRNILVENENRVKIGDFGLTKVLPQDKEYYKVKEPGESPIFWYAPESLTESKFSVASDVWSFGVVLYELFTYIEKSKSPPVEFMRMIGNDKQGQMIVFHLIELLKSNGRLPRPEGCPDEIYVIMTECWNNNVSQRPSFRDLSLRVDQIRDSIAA", "UniProt Q8K3K8": "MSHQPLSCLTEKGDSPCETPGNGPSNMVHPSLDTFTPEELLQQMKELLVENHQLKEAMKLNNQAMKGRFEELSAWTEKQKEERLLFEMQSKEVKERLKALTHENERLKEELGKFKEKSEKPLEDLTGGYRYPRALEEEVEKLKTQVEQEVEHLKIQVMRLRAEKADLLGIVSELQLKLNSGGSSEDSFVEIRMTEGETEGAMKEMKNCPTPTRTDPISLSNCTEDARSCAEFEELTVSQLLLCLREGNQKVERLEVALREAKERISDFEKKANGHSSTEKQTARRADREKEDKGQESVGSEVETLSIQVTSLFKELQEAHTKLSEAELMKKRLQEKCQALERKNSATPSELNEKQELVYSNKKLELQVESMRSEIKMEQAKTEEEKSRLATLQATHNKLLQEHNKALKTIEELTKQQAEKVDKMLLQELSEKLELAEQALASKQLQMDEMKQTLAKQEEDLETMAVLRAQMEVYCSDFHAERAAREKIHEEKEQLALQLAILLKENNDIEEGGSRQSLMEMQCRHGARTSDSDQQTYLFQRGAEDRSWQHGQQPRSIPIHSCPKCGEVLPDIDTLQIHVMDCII", "UniProt P42227": "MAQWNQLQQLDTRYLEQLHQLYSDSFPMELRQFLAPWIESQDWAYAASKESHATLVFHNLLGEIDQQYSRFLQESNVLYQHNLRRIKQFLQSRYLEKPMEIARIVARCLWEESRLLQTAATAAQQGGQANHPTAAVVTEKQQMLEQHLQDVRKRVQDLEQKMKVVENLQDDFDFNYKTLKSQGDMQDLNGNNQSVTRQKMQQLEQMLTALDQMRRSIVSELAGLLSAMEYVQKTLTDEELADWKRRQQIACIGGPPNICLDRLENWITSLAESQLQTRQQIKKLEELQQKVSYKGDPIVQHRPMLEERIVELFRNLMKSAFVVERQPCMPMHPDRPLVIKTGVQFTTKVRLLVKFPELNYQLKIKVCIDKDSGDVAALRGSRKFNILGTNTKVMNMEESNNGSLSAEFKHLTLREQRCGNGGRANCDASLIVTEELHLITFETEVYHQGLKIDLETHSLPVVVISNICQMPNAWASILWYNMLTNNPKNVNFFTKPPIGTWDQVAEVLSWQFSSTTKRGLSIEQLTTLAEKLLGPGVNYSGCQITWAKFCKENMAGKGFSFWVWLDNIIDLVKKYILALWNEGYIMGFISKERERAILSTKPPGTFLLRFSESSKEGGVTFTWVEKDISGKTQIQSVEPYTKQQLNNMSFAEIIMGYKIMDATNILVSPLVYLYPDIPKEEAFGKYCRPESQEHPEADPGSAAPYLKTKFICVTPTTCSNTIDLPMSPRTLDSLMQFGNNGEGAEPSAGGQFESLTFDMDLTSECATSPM", "UniProt Q96CV9": "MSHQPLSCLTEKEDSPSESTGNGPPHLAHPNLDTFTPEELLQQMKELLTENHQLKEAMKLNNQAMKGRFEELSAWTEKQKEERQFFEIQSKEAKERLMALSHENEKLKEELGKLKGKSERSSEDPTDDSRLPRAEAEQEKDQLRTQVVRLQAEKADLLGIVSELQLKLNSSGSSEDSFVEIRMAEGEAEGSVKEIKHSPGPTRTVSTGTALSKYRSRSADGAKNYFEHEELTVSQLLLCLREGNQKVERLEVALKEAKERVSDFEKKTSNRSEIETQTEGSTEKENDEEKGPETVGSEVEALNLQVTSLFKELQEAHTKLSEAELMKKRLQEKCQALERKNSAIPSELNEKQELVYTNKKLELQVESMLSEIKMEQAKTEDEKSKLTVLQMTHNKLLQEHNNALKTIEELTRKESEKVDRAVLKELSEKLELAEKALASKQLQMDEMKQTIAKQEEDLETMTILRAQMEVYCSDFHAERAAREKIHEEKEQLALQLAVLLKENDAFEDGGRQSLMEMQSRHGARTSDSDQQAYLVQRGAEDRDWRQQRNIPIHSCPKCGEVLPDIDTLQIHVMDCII", "UniProt Q9QUK6, residues 26-835": "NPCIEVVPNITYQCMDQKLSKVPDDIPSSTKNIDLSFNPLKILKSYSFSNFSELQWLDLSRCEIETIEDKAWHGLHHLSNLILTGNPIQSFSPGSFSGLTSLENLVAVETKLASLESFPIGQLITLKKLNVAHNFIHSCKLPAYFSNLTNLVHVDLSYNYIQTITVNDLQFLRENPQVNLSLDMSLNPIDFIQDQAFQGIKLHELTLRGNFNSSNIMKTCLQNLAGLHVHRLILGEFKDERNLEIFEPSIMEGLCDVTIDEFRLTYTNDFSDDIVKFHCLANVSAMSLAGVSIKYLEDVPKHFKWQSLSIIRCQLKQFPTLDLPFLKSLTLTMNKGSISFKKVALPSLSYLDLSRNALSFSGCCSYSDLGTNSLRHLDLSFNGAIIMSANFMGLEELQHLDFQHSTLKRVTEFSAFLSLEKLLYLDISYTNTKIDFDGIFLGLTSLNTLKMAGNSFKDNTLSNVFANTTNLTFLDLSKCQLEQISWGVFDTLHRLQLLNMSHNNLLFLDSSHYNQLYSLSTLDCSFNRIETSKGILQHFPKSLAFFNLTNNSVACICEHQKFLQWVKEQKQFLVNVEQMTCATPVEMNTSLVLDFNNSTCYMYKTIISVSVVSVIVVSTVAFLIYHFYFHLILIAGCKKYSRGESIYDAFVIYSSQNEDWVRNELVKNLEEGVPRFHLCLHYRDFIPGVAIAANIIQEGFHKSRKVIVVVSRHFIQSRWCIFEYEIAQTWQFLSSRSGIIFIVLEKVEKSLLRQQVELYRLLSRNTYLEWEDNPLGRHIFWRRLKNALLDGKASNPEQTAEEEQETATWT"}, "source": "paper PMC8551263", "about": "“Optineurin modulates the maturation of dendritic cells to regulate autoimmunity through JAK2-STAT3 signaling” (Nature Communications, 2021)", "key": {"[1]": {"biological_target": "endogenous JAK2 of mouse BMDCs (mouse (endogenous in BMDCs)) (UniProt Q62120)", "experiment": "co-IP; BMDCs transfected with HA-OPTN or empty vector; interaction of endogenous STAT3 and JAK2 analysed by IP"}, "[2]": {"biological_target": "endogenous OPTN of mouse primary BMDCs (mouse (endogenous in BMDCs)) (UniProt Q8K3K8)", "experiment": "co-IP; endogenous proteins in mouse primary BMDC whole-cell lysate; IP with anti-OPTN (control IgG), Protein A/G beads, blot for JAK2"}, "[3]": {"biological_target": "endogenous JAK2 of mouse BMDCs (mouse (endogenous in BMDCs)) (UniProt Q62120)", "experiment": "cross-linking; BMDCs transfected with HA-OPTN or empty vector; whole-cell lysates incubated with disuccinimidyl suberate (DSS); JAK2 blot, dimer and monomer bands"}, "[4]": {"biological_target": "endogenous STAT3 of mouse BMDCs (mouse (endogenous in BMDCs)) (UniProt P42227)", "experiment": "co-IP; endogenous proteins in BMDCs after LPS treatment; IP with anti-JAK2 or anti-STAT3, normal rabbit IgG as control; blot with anti-TLR4, anti-JAK2, anti-STAT3"}, "[5]": {"biological_target": "endogenous JAK2 of mouse BMDCs (mouse (endogenous in BMDCs)) (UniProt Q62120)", "experiment": "co-IP; endogenous proteins in BMDCs after LPS treatment; IP with anti-JAK2 or anti-STAT3, normal rabbit IgG as control; blot with anti-TLR4, anti-JAK2, anti-STAT3"}}, "note": "These are yes or no findings as the source states them, for the method shown. In cells and extracts the contact can be indirect. Some results given as binding are weak or reduced against the parent protein; the word gives no strength."}
{"substance": "HA-tagged OPTN, expressed in mouse BMDCs (from UniProt Q96CV9 1-577)", "values": [{"measurement": "binding", "setting": "[1]", "value": "binds"}]}
{"substance": "endogenous JAK2 of mouse BMDCs (from UniProt Q62120 1-1132)", "values": [{"measurement": "binding", "setting": "[2]", "value": "binds"}, {"measurement": "binding", "setting": "[3]", "value": "binds"}]}
{"substance": "endogenous TLR4 of mouse BMDCs (from UniProt Q9QUK6 26-835) (receptor)", "values": [{"measurement": "binding", "setting": "[4]", "value": "no binding"}, {"measurement": "binding", "setting": "[5]", "value": "no binding"}]}
